These results are taken from US20250340655A1, “EPHA2-TARGETING ANTIBODIES AND THEIR APPLICATIONS IN CANCER TREATMENT” (TAIPEI MEDICAL UNIVERSITY, priority 2022, published 2025).

The chains behind the UniProt entries cited, without tags or fusion partners. Residues count along the entry.
UniProt P29317, residues 24-976: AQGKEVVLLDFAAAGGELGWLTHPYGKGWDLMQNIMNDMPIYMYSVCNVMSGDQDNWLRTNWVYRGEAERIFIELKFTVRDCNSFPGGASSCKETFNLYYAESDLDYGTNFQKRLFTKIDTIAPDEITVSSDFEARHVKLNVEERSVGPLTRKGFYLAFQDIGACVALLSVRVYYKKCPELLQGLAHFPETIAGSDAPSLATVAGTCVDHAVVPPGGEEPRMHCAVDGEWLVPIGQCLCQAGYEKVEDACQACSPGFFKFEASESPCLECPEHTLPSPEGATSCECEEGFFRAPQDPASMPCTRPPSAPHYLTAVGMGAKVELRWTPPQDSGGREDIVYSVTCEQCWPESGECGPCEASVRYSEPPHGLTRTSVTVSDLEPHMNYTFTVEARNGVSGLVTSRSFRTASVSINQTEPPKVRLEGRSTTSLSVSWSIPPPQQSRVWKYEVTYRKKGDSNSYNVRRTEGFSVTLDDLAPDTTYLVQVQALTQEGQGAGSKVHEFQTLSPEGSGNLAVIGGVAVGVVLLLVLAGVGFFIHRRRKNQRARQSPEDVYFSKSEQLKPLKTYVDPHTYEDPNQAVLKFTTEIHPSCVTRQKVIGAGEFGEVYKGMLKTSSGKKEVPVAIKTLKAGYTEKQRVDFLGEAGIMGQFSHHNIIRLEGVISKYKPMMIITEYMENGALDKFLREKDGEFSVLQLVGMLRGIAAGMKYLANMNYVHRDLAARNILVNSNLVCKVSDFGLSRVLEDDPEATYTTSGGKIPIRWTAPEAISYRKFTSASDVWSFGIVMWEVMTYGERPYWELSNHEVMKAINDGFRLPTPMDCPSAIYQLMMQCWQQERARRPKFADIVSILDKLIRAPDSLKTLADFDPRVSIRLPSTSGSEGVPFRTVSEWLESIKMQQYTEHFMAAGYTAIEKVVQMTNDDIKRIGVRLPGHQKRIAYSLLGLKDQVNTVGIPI
UniProt P20827, residues 19-182: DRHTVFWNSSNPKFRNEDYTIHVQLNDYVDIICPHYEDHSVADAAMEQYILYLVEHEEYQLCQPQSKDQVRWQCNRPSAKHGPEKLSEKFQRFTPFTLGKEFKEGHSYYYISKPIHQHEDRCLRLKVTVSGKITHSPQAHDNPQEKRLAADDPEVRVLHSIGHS

No constants are given. Whether binding was seen depends on the method and setting. Some entries that bind do so weakly or less than the wild type.

This test addresses endogenous EphA2 molecule on cancer cells (human) (UniProt P29317). Kind of test: confocal microscopy of BxPc-3 cells, anti-human Fc staining.

On to “ephrin A1-Fc (Sino Biological) (from UniProt P20827 19-182) (Fc fusion)”, for which the binding result is given as “binds”.
